Where two headings read alike, the source gives them in different places.
Columns and labels:
[1] = Prophylactic study: HbA1c / blood glucose level; format: in vivo, Wistar strain albino rats; details: HFD+normal diet, after sacrifice
Description: (§1) The 6 groups were as follows: • 1. Normal Control • 2.

[2] = test system: Lipid peroxidation (Plasma & Liver); test: Therapeutic study: lipid peroxidation (plasma and liver LPO); format: in vivo, Wistar strain albino rats; details: for MDA Liver / MDA Plasma: after necropsy
Description: (§2) 1.5-2 ml blood sample was taken from retino-orbital chamber in vials for biochemical estimations at every 15 days. Investigations performed included detailed Total Cholesterol—TC (mg/dl), Triglyceride—TG (mg/dl), High Density Lipoprotein—HDL-C (mg/dl), Low Density Lipoprotein—LDL-C (mg/dl), Very Low-Density Lipoprotein—VLDL (mg/dl), WBC (10^3/u1), RBC (10^6/u1), Hb (g/dl), PCV (%), Reticulocyte (%), Platelet count 10^5/mm^3, Clotting time (Sec), Neutrophils, Lymphocyte, Monocyte and Eosinophil. The estimations were done with Ecoline kits from Erba Mannheim, ERBA diagnostics Mannheml, Germany using Semi Autoanalyzer RX50 of MicroLabs Instruments and COUNCELL21 of Tulip Diagnostics Pvt. Ltd. Lipid peroxidation (Plasma & Liver), HMG Co-Reductase, Creatine phosphokinase (CPK), Lactate dehydrogenase (LDH), SGOT and SGPT were estimated at the end of both the studies using the kits.

[3] = Prophylactic study: hematological parameters; format: in vivo, Wistar strain albino rats; details: HFD+normal diet
Description: (§3) Wistar strain albino rats of body weight ranging from 190-225 g were selected for the present study. The temperature and humidity were kept at optimum (22+2° C.; 40-70% and animals were exposed to natural chronological day night cycles. The experiments were carried out in conformity with the Institutional Animal Ethics Committee.
as §1, §2

[4] = Description: The prophylactic study which lasted 90 days used 6 rats per group. […] The 6 groups were as follows: • 1. Normal Control • 2. High Fat Diet (HFD) 1 ml 1/d+Normal Diet • 3. High Fat Diet (HFD)+Normal Diet+the composition of the present invention (OD) • 4, High Fat Diet (HFD)+Normal Diet+the composition of the present invention (BD) • 5. […] The body weights were recorded to the nearest gram (g) with proper tare to 0.0000 with the subject at steady state on the weighing machine. The same weighing machine was used for all the subjects. The machine was tested with a known set of weights for any error.
The long-term rise in the electrolyte such as Na and are associated with blood pressure disorders impacting the heart.

[5] = Therapeutic study (60 days treatment after 90 days HFD): body weight; format: in vivo, Wistar strain albino rats; details: HFD discontinued, day 15; in g
Description: as §3, §1

[6] = Therapeutic study: hematological parameters; format: in vivo, Wistar strain albino rats; details: HFD continued
Description: as §3, §1, §2

[7] = test system: Lipid peroxidation (Plasma & Liver); test: Prophylactic study: lipid peroxidation (MDA, plasma and liver); format: in vivo, Wistar strain albino rats; details: HFD+normal diet, after sacrifice
Description: as §2

[8] = Prophylactic study: organ weights after sacrifice; format: in vivo, Wistar strain albino rats; details: HFD+normal diet
Description: as §1

[9] = Therapeutic study: organ body weight after necropsy; format: in vivo, Wistar strain albino rats
Description: as §1

[10] = test system: Creatine phosphokinase (CPK), Lactate dehydrogenase (LDH), SGOT and SGPT; test: Therapeutic study: CPK, LDH, SGOT, SGPT; format: in vivo, Wistar strain albino rats; details: HFD Discontinued
Description: as §2

Compound: CC(C)c1c(C(=O)Nc2ccccc2)c(-c2ccccc2)c(-c2ccc(F)cc2)n1CC[C@@H](O)C[C@@H](O)CC(=O)O [Statin, Atorvastatin]
- HbA1c [1]: 3.72 ± 0.16
- MDA Liver ([2]; HFD Continued): 84.53 ± 5.09 nmol/g tissue
- MDA Plasma ([2]; HFD Continued): 35.84 ± 0.97 nmol/mL
- MDA Liver ([2]; HFD Discontinued): 82.65 ± 3.76 nmol/g tissue
- MDA Plasma ([2]; HFD Discontinued): 35.80 ± 1.58 nmol/mL
- Liver LPO reduced ([2]; therapeutic study): 11%
- Hb ([3]; day 15): 09.44 ± 1.19 g/dL
- Hb ([3]; day 30): 11.9 ± 1.10 g/dL
- PCV ([3]; day 30): 41.40 ± 1.15%
- PCV ([3]; day 75): 41.40 ± 0.37%
- PCV ([3]; day 90): 41.45 ± 0.29%
- HbA1c ([4]; HFD Continued): 3.67 ± 0.18
- HbA1c ([4]; HFD Discontinued): 4.15 ± 0.16
- vitamin D value in the plasma ([4]; rat, in vivo): 35 IU
- Average Body Weight [5]: 268.00 ± 8.89
- WBC ([6]; day 0): 8.45 ± 0.39 103/μl
- Reticulocyte ([6]; day 15): 1.34 ± 0.03%
- Reticulocyte ([6]; day 60): 1.32 ± 0.02%
- MDA Liver [7]: 80.60 ± 0.90 nmol/g tissue
- MDA Plasma [7]: 35.10 ± 1.55 nmol/mL
- Brain weight [8]: 1.30 ± 0.05 g/100 g bd · wt
- Brain (organ body weight after necropsy) ([9]; HFD Continued): 3.51 ± 0.12 g/100 g bd. wt
- Heart (organ body weight after necropsy) ([9]; HFD Continued): 1.34 ± 0.02 g/100 g bd. wt
- Brain (organ body weight after necropsy) ([9]; HFD Discontinued): 3.37 ± 0.05 g/100 g bd. wt
- Heart (organ body weight after necropsy) ([9]; HFD Discontinued): 1.32 ± 0.05 g/100 g bd. wt
- Creatine phosphokinase [10]: 1.32 ± 0.08

From US20230270804A1, “ANTI-HYPERCHOLESTEROLEMIA COMPOSITION AND A METHOD OF MANUFACTURING THE SAME” (NBI BIOSCIENCES PRIVATE LIMITED, priority 2020, published 2023)
